According to publication PMC4624963, “Enzymatic Characterization of Recombinant Food Vacuole Plasmepsin 4 from the Rodent Malaria Parasite Plasmodium berghei” (PLoS ONE, 2015):
No constants are given. Whether binding was seen depends on the method and setting.

Protein sequences, listed by entry. Tags and fused reporters are not part of them. Residues count along the entry.
UniProt P39898, residues 124-452: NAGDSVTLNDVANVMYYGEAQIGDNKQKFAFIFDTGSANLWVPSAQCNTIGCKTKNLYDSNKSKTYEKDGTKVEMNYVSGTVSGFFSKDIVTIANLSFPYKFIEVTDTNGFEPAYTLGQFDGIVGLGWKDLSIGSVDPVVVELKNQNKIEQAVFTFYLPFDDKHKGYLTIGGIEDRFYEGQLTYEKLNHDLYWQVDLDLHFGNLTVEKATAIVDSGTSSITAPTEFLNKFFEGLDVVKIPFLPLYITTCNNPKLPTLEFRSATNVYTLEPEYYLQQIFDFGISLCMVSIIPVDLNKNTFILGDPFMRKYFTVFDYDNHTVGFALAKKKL

Target: plasmepsin 1 from Plasmodium falciparum (Plasmodium falciparum) (UniProt P39898)
Experiment: enzyme inhibition kinetics (Ki of competitive inhibition); initial cleavage velocities of a chromogenic peptide substrate at varied inhibitor concentration; mature PfPM1 pre-incubated in 100 mM sodium citrate pH 5.5, 37°C, 3 min; both purified

- binding: no binding (tested: > 100,000 nM)
Binder: KPYEFRQF [compound 1 (KPYEFΨRQF), peptidomimetic inhibitor designed for PbPM4]
